The text below walks through data of patent US20050101542A1, “Combination therapy for controlling appetites” (Regents of the University of California, priority 2002, published 2005).

This series is described as follows: Plasma hormone levels by radioimmunoassay. The format is in vivo, rat. The conditions noted are these: 60 min after OEA 20 mg per kg i.p. The procedure:
Blood chemistry. Plasma β-hydroxybutyrate and glycerol were measured using commercial kits (Sigma, St. Louis, Mo.). Plasma prolactin, corticosterone and luteinizing hormone were quantified by radioimmunoassay (Navarro, et al., Neuroreport, 8:491-496 (1997)).

Take `CCCCCCCC/C=C\CCCCCCCC(=O)NCCO` [OEA, Z-2-hydroxyethyl octadec-9-enamide]: the “plasma corticosterone (B)” value came out at 280 ± 61 ng per ml, the “plasma luteinizing hormone (LH)” value is 6.2 ± 1.5 ng per ml and the “plasma prolactin (PRL)” value came out at 8.2 ± 3.2 ng per ml.
